{
  "sequences": {"note": "Chains of the proteins cited; added tags and fusions are not shown. Lines headed by an entry give the natural chain unless they say otherwise; changes in a name come on top.", "UniProt P17987": "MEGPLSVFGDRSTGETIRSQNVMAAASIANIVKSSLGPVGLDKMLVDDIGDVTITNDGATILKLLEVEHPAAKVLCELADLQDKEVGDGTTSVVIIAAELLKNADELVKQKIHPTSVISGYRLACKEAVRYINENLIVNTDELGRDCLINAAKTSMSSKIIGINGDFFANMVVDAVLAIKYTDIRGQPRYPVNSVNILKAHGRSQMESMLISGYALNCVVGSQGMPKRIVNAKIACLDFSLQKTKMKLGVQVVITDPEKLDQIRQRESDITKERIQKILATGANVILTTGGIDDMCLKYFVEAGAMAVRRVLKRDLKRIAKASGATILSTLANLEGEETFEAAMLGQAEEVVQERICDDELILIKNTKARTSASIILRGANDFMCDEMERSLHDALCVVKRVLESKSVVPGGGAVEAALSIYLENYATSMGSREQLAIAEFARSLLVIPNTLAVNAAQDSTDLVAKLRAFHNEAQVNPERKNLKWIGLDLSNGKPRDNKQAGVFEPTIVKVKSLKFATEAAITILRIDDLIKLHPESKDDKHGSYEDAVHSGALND", "UniProt Q8N122": "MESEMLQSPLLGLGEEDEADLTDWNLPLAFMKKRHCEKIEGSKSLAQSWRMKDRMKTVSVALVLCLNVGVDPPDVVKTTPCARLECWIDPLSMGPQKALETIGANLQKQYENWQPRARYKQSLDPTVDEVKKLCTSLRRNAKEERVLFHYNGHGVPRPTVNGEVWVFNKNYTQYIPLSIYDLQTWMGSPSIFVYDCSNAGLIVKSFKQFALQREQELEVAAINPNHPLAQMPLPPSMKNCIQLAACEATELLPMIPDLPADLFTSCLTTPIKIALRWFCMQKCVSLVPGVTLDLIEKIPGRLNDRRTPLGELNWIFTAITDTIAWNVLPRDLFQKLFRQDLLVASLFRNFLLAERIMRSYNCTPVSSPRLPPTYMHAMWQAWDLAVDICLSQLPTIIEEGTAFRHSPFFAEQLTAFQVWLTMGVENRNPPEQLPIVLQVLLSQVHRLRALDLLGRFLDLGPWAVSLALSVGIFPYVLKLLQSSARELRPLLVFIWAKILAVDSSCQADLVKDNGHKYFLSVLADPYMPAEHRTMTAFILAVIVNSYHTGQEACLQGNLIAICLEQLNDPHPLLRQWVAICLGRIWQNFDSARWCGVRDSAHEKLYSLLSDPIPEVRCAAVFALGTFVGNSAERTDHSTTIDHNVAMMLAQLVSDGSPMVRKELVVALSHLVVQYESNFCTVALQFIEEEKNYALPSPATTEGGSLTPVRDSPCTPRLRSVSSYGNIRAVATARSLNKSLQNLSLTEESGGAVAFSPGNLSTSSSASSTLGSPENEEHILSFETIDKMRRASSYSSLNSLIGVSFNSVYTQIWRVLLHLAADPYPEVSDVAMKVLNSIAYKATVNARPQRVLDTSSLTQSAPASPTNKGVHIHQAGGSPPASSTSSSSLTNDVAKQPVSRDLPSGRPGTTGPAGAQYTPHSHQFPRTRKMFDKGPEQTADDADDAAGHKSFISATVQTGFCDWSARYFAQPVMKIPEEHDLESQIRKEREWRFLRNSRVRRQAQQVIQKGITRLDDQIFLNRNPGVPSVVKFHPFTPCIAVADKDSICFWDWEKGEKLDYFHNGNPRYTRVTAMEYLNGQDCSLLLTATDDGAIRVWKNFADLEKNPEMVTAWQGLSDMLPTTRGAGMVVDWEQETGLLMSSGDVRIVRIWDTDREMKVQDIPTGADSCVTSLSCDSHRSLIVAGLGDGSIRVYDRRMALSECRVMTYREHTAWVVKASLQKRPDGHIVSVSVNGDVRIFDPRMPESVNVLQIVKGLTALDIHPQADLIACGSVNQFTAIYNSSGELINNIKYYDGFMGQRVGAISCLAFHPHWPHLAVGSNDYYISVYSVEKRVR"},
  "source": "paper PMC6599039",
  "about": "“Structural and functional analysis of the role of the chaperonin CCT in mTOR complex assembly” (Nature Communications, 2019)",
  "note": "No constants are given. Whether binding was seen depends on the method and setting. In cells and extracts the contact can be indirect. Some results given as binding are weak or reduced against the parent protein; the word gives no strength.",
  "data": [
    {"biological_target": "cytosolic chaperonin containing TCP-1 (CCT), endogenous (human (endogenous in HEK-293T)) (UniProt P17987)", "assay": "co-IP; HEK-293T cells transfected with the named protein; lysis in PBS with 0.3–0.5% CHAPS; immunoprecipitation of the transfected protein (epitope tag antibody) or of endogenous CCT (CCT5), protein A/G agarose, immunoblot", "values": [
      {"substance": "Raptor C-terminal β-propeller (residues 1000–1335), HA-tagged (from UniProt Q8N122 1000-1335) (domain or fragment)", "binding": "binds"},
      {"substance": "Raptor N-terminal caspase homology and armadillo repeat domains (residues 1–999), HA-tagged (from UniProt Q8N122 1-999) (domain or fragment)", "binding": "no binding"},
      {"substance": "regulatory associated protein of mTOR (Raptor), full length, HA-tagged (from UniProt Q8N122 1-1335)", "binding": "binds"}
    ]}
  ]
}
